# Laboratory results reported in the supplement of paper PMC8728848.
# The list shows a part of the results.
# B1: CD34 (Homo sapiens), P28906 (protein)
# chain: MGSSHHHHHHSSGLVPRGSHMSTSLATSPTKPYTSSSPILSDIKAEIKCSGIREVKLTQGICLEQNKTSSCAEFKKDRGEGLARVLCGEEQADADAGAQVCSLLLAQSEVRPQCLLLVLANRTEISSKLQLMKKHQSDLKKLGILDFTEQDVASHQSYSQKT
# Assays:
# Test in all cases: glycan array binding signal (z-score within array); higher = stronger binding
# Conditions in all cases: glycan notation: IUPAC condensed, linker removed
# [1] = target: Neu5Ac(a2-3)Gal(b1-4)GlcNAc(b1-3)[Neu5Ac(a2-3)Gal(b1-4)GlcNAc(b1-6)]GalNAc
# Procedure, shortened: (§1)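 Columns mapping to the same glycan were averaged after glycan names were converted to IUPAC-condensed notation. The data come from 3228 arrays in the Consortium for Functional Glycomics database, limited to those with an available protein sequence. Binding is reported as a within-array Z-score averaged across arrays of one protein sequence and across linkers.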
# [2] = target: Neu5Ac(a2-3)Gal(b1-4)GlcNAc(b1-6)GalNAc
# Procedure, shortened: as §1
# [3] = target: Neu5Ac(a2-3)Gal(b1-4)GlcNAc(b1-6)[Gal(b1-3)]GalNAc
# Procedure, shortened: as §1
# [4] = target: Neu5Ac(a2-3)Gal(b1-4)GlcNAc(b1-6)[Neu5Ac(a2-3)Gal(b1-3)]GalNAc
# Procedure, shortened: as §1
# [5] = target: Neu5Ac(a2-3)Gal(b1-4)GlcNAc6S
# Procedure, shortened: as §1
# [6] = target: Neu5Ac(a2-3)Gal(b1-4)[Fuc(a1-3)]GlcNAc
# Procedure, shortened: as §1
# [7] = target: Neu5Ac(a2-3)Gal(b1-4)[Fuc(a1-3)]GlcNAc(b1-2)Man
# Procedure, shortened: as §1
# [8] = target: Neu5Ac(a2-3)Gal(b1-4)[Fuc(a1-3)]GlcNAc(b1-3)Gal
# Procedure, shortened: as §1
# [9] = target: Neu5Ac(a2-3)Gal(b1-4)[Fuc(a1-3)]GlcNAc(b1-3)Gal(b1-4)GlcNAc
# Procedure, shortened: as §1
# [10] = target: Neu5Ac(a2-3)Gal(b1-4)[Fuc(a1-3)]GlcNAc(b1-3)Gal(b1-4)[Fuc(a1-3)]GlcNAc(b1-3)Gal(b1-4)[Fuc(a1-3)]GlcNAc
# Procedure, shortened: as §1
# [11] = target: Neu5Ac(a2-3)Gal(b1-4)[Fuc(a1-3)]GlcNAc(b1-3)GalNAc
# Procedure, shortened: as §1
# [12] = target: Neu5Ac(a2-3)Gal(b1-4)[Fuc(a1-3)]GlcNAc(b1-6)[Gal(b1-3)]GalNAc
# Procedure, shortened: as §1
# [13] = target: Neu5Ac(a2-3)Gal(b1-4)[Fuc(a1-3)]GlcNAc(b1-6)[Neu5Ac(a2-3)Gal(b1-3)]GalNAc
# Procedure, shortened: as §1
# [14] = target: Neu5Ac(a2-3)Gal(b1-4)[Fuc(a1-3)]GlcNAc6S
# Procedure, shortened: as §1
# [15] = target: Neu5Ac(a2-3)Gal6S(b1-4)GlcNAc
# Procedure, shortened: as §1
# [16] = target: Neu5Ac(a2-3)Gal6S(b1-4)[Fuc(a1-3)]GlcNAc
# Procedure, shortened: as §1
# [17] = target: Neu5Ac(a2-3)GalNAc
# Procedure, shortened: as §1
# [18] = target: Neu5Ac(a2-3)GalNAc(b1-4)GlcNAc
# Procedure, shortened: as §1
# [19] = target: Neu5Ac(a2-3)[GalNAc(b1-4)]Gal(b1-4)Glc
# Procedure, shortened: as §1
# [20] = target: Neu5Ac(a2-3)[GalNAc(b1-4)]Gal(b1-4)GlcNAc
# Procedure, shortened: as §1
# [21] = target: Neu5Ac(a2-3)[GalNAc(b1-4)]Gal(b1-4)GlcNAc(b1-3)GalNAc
# Procedure, shortened: as §1
# [22] = target: Neu5Ac(a2-3)[Neu5Ac(a2-6)]GalNAc
# Procedure, shortened: as §1
# [23] = target: Neu5Ac(a2-6)Gal
# Procedure, shortened: as §1
# [24] = target: Neu5Ac(a2-6)Gal(b1-3)GlcNAc(b1-3)[Gal(b1-4)GlcNAc(b1-6)]Gal(b1-4)Glc
# Procedure, shortened: as §1
# [25] = target: Neu5Ac(a2-6)Gal(b1-4)Glc
# Procedure, shortened: as §1
# [26] = target: Neu5Ac(a2-6)Gal(b1-4)GlcNAc
# Procedure, shortened: as §1
# [27] = target: Neu5Ac(a2-6)Gal(b1-4)GlcNAc(b1-2)Man
# Procedure, shortened: as §1
# [28] = target: Neu5Ac(a2-6)Gal(b1-4)GlcNAc(b1-2)Man(a1-3)Man(b1-4)GlcNAc(b1-4)GlcNAc
# Procedure, shortened: as §1
# [29] = target: Neu5Ac(a2-6)Gal(b1-4)GlcNAc(b1-2)Man(a1-3)[Gal(b1-4)GlcNAc(b1-2)Man(a1-6)]Man(b1-4)GlcNAc(b1-4)GlcNAc
# Procedure, shortened: as §1
# [30] = target: Neu5Ac(a2-6)Gal(b1-4)GlcNAc(b1-2)Man(a1-3)[GlcNAc(b1-2)Man(a1-6)]Man(b1-4)GlcNAc(b1-4)GlcNAc
# Procedure, shortened: as §1
# [31] = target: Neu5Ac(a2-6)Gal(b1-4)GlcNAc(b1-2)Man(a1-3)[GlcNAc(b1-4)][Neu5Ac(a2-6)Gal(b1-4)GlcNAc(b1-2)Man(a1-6)]Man(b1-4)GlcNAc(b1-4)GlcNAc
# Procedure, shortened: as §1
# [32] = target: Neu5Ac(a2-6)Gal(b1-4)GlcNAc(b1-2)Man(a1-3)[Man(a1-6)]Man(b1-4)GlcNAc(b1-4)GlcNAc
# Procedure, shortened: as §1
# [33] = target: Neu5Ac(a2-6)Gal(b1-4)GlcNAc(b1-2)Man(a1-3)[Neu5Ac(a2-3)Gal(b1-4)GlcNAc(b1-2)Man(a1-6)]Man(b1-4)GlcNAc(b1-4)GlcNAc
# Procedure, shortened: as §1
# [34] = target: Neu5Ac(a2-6)Gal(b1-4)GlcNAc(b1-2)Man(a1-3)[Neu5Ac(a2-6)Gal(b1-4)GlcNAc(b1-2)Man(a1-6)]Man(b1-4)GlcNAc(b1-4)GlcNAc
# Procedure, shortened: as §1
# [35] = target: Neu5Ac(a2-6)Gal(b1-4)GlcNAc(b1-2)Man(a1-3)[Neu5Ac(a2-6)Gal(b1-4)GlcNAc(b1-2)Man(a1-6)]Man(b1-4)GlcNAc(b1-4)[Fuc(a1-6)]GlcNAc
# Procedure, shortened: as §1
# [36] = target: Neu5Ac(a2-6)Gal(b1-4)GlcNAc(b1-2)Man(a1-6)Man(b1-4)GlcNAc(b1-4)GlcNAc
# Procedure, shortened: as §1
# [37] = target: Neu5Ac(a2-6)Gal(b1-4)GlcNAc(b1-2)Man(a1-6)[Gal(b1-4)GlcNAc(b1-2)Man(a1-3)]Man(b1-4)GlcNAc(b1-4)GlcNAc
# Procedure, shortened: as §1
# [38] = target: Neu5Ac(a2-6)Gal(b1-4)GlcNAc(b1-2)Man(a1-6)[GlcNAc(b1-2)Man(a1-3)]Man(b1-4)GlcNAc(b1-4)GlcNAc
# Procedure, shortened: as §1
# [39] = target: Neu5Ac(a2-6)Gal(b1-4)GlcNAc(b1-2)Man(a1-6)[Man(a1-3)]Man(b1-4)GlcNAc(b1-4)GlcNAc
# Procedure, shortened: as §1
# [40] = target: Neu5Ac(a2-6)Gal(b1-4)GlcNAc(b1-2)[Neu5Ac(a2-6)Gal(b1-4)GlcNAc(b1-4)]Man(a1-3)[GlcNAc(b1-4)][Neu5Ac(a2-6)Gal(b1-4)GlcNAc(b1-2)[Neu5Ac(a2-6)Gal(b1-4)GlcNAc(b1-6)]Man(a1-6)]Man(b1-4)GlcNAc(b1-4)GlcNAc
# Procedure, shortened: as §1
# [41] = target: Neu5Ac(a2-6)Gal(b1-4)GlcNAc(b1-2)[Neu5Ac(a2-6)Gal(b1-4)GlcNAc(b1-4)]Man(a1-3)[GlcNAc(b1-4)][Neu5Ac(a2-6)Gal(b1-4)GlcNAc(b1-4)Man(a1-6)]Man(b1-4)GlcNAc(b1-4)GlcNAc
# Procedure, shortened: as §1
# [42] = target: Neu5Ac(a2-6)Gal(b1-4)GlcNAc(b1-2)[Neu5Ac(a2-6)Gal(b1-4)GlcNAc(b1-6)]Man(a1-6)[Neu5Ac(a2-6)Gal(b1-4)GlcNAc(b1-2)Man(a1-3)][GlcNAc(b1-4)]Man(b1-4)GlcNAc(b1-4)GlcNAc
# Procedure, shortened: as §1
# [43] = target: Neu5Ac(a2-6)Gal(b1-4)GlcNAc(b1-3)Gal(b1-3)GlcNAc
# Procedure, shortened: as §1
# [44] = target: Neu5Ac(a2-6)Gal(b1-4)GlcNAc(b1-3)Gal(b1-4)GlcNAc
# Procedure, shortened: as §1
# [45] = target: Neu5Ac(a2-6)Gal(b1-4)GlcNAc(b1-3)Gal(b1-4)GlcNAc(b1-2)Man(a1-3)[Neu5Ac(a2-6)Gal(b1-4)GlcNAc(b1-3)Gal(b1-4)GlcNAc(b1-2)Man(a1-6)]GalNAc
# Procedure, shortened: as §1
binder,measurement,setting,value
B1,glycan array binding signal (z-score),[1],-0.068
same,glycan array binding signal (z-score),[2],0.368
same,glycan array binding signal (z-score),[3],0.07
same,glycan array binding signal (z-score),[4],-0.271
same,glycan array binding signal (z-score),[5],-0.319
same,glycan array binding signal (z-score),[6],-0.826
same,glycan array binding signal (z-score),[7],0.146
same,glycan array binding signal (z-score),[8],-0.272
same,glycan array binding signal (z-score),[9],0.795
same,glycan array binding signal (z-score),[10],-0.727
same,glycan array binding signal (z-score),[11],1.65
same,glycan array binding signal (z-score),[12],-0.095
same,glycan array binding signal (z-score),[13],0.447
same,glycan array binding signal (z-score),[14],0.216
same,glycan array binding signal (z-score),[15],0.08
same,glycan array binding signal (z-score),[16],-1.26
same,glycan array binding signal (z-score),[17],-0.16
same,glycan array binding signal (z-score),[18],-0.485
same,glycan array binding signal (z-score),[19],-0.466
same,glycan array binding signal (z-score),[20],-0.966
same,glycan array binding signal (z-score),[21],0.434
same,glycan array binding signal (z-score),[22],-0.204
same,glycan array binding signal (z-score),[23],0.74
same,glycan array binding signal (z-score),[24],-1.06
same,glycan array binding signal (z-score),[25],-0.493
same,glycan array binding signal (z-score),[26],-0.16
same,glycan array binding signal (z-score),[27],0.9
same,glycan array binding signal (z-score),[28],-0.367
same,glycan array binding signal (z-score),[29],0.266
same,glycan array binding signal (z-score),[30],1.12
same,glycan array binding signal (z-score),[31],-0.155
same,glycan array binding signal (z-score),[32],0.171
same,glycan array binding signal (z-score),[33],0.395
same,glycan array binding signal (z-score),[34],0.118
same,glycan array binding signal (z-score),[35],0.512
same,glycan array binding signal (z-score),[36],0.49
same,glycan array binding signal (z-score),[37],-0.644
same,glycan array binding signal (z-score),[38],-0.534
same,glycan array binding signal (z-score),[39],0.414
same,glycan array binding signal (z-score),[40],-0.831
same,glycan array binding signal (z-score),[41],-0.027
same,glycan array binding signal (z-score),[42],-0.322
same,glycan array binding signal (z-score),[43],0.143
same,glycan array binding signal (z-score),[44],-0.694
same,glycan array binding signal (z-score),[45],0.167

# Random excerpt: 2 records from the list.
binder,measurement,setting,value
B1,glycan array binding signal (z-score),[12],-0.095
same,glycan array binding signal (z-score),[17],-0.16
